Measurements taken from PMC8317539.
Results are given in words; binding and its absence hold for the method and conditions named. In cells and extracts the contact can be indirect. Some results given as binding are weak or reduced against the parent protein; the word gives no strength.

By UniProt entry, the sequences of proteins in these tests, tags left out. Residues count along the entry.
UniProt P11717, residues 41-2491: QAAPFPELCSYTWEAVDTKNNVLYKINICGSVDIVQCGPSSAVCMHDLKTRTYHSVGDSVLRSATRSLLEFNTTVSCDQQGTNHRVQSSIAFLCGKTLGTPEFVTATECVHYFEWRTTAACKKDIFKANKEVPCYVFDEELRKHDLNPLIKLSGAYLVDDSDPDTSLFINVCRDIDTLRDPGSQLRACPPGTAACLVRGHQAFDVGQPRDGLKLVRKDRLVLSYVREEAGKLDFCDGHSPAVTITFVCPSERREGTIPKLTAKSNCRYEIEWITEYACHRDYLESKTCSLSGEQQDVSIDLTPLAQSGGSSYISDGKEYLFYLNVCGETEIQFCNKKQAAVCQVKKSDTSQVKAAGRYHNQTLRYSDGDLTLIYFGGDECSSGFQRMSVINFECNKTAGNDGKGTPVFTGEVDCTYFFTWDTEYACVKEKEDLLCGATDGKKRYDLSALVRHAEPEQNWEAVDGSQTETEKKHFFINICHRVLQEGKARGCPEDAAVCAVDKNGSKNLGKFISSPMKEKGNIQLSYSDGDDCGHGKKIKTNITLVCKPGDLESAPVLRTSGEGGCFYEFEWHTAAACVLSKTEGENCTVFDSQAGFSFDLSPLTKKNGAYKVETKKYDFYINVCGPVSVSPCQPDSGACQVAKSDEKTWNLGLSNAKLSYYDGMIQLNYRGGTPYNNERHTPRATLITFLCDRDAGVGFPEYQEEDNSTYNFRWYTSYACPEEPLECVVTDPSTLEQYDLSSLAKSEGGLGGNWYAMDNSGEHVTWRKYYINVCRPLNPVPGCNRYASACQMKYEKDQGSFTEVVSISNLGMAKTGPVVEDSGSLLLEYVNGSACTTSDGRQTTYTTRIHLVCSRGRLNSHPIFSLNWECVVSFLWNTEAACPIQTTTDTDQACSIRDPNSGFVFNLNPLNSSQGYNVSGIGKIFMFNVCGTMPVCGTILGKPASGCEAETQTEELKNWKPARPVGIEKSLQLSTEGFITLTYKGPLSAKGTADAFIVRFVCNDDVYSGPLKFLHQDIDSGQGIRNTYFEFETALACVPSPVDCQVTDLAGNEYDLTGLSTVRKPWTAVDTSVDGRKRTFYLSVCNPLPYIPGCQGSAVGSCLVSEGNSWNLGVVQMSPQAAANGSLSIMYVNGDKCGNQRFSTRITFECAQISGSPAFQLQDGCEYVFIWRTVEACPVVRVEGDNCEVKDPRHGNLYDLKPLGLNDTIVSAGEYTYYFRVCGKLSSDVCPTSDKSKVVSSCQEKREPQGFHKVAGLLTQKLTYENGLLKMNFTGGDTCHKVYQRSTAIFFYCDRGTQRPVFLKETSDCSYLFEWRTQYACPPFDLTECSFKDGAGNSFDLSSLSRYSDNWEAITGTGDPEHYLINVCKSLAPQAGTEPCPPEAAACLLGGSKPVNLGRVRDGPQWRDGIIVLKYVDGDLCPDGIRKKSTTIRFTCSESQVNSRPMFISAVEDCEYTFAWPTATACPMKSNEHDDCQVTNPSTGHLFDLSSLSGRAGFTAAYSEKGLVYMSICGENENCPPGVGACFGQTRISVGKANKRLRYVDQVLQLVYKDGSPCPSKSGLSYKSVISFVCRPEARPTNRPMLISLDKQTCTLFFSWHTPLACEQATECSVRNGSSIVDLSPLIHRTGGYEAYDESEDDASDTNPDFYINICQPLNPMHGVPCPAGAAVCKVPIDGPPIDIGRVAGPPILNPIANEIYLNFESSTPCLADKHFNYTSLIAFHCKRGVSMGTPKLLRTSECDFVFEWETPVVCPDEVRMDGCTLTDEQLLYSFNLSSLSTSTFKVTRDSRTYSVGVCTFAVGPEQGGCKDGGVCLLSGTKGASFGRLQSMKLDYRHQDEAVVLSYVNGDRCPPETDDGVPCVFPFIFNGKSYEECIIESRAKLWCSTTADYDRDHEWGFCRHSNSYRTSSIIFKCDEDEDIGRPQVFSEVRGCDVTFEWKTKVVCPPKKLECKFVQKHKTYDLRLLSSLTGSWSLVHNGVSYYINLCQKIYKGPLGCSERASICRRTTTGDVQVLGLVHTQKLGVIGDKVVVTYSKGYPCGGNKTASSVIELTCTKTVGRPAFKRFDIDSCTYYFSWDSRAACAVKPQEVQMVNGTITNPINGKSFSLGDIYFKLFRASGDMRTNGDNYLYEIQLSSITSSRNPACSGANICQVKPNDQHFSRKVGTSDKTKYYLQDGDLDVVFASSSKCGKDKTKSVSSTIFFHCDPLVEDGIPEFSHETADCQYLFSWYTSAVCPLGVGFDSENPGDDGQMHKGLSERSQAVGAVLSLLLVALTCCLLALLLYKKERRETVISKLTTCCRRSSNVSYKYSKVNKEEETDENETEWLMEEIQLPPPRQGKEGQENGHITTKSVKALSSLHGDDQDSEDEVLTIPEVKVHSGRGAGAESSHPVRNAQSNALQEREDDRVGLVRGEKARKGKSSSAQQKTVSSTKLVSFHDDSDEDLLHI
UniProt P09758, residues 27-323: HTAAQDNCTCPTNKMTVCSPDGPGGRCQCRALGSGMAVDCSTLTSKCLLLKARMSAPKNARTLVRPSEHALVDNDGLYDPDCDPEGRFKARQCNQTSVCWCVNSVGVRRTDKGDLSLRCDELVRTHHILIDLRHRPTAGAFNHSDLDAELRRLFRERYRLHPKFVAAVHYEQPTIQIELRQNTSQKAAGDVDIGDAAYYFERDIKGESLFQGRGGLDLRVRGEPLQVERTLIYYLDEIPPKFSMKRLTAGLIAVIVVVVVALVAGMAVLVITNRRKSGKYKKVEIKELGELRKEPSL

Experiments:
[1] = target: Flag-IGF2R (insulin-like growth factor-2 receptor) (UniProt P11717); experiment: co-IP; 293T cells co-transfected with HA-Trop2 (or control HA-PCMV) and Flag-IGF2R (or control Flag-pcDNA3.1), 48 h, lysed in RIPA buffer; Dynabeads with anti-Flag antibody or control IgG; western blot
[2] = target: Trop2, endogenous in PC-9/GR cells (human (endogenous in PC-9/GR)) (UniProt P09758); experiment: co-IP; PC-9/GR cell lysates immunoprecipitated with anti-Trop2 antibody; IGF2R detected with anti-IGF2R antibody (the text calls it a pull-down assay)

| Substance | binding [1] | binding [2] |
| --- | --- | --- |
| HA-Trop2 (human trophoblast cell surface antigen 2) (from UniProt P09758 27-323) | binds | – |
| IGF2R, endogenous in PC-9/GR cells (from UniProt P11717 41-2491) (receptor) | – | binds |
